Reference: article PMC12120796

By UniProt entry, the sequences of proteins in these tests, tags left out.
UniProt P42224: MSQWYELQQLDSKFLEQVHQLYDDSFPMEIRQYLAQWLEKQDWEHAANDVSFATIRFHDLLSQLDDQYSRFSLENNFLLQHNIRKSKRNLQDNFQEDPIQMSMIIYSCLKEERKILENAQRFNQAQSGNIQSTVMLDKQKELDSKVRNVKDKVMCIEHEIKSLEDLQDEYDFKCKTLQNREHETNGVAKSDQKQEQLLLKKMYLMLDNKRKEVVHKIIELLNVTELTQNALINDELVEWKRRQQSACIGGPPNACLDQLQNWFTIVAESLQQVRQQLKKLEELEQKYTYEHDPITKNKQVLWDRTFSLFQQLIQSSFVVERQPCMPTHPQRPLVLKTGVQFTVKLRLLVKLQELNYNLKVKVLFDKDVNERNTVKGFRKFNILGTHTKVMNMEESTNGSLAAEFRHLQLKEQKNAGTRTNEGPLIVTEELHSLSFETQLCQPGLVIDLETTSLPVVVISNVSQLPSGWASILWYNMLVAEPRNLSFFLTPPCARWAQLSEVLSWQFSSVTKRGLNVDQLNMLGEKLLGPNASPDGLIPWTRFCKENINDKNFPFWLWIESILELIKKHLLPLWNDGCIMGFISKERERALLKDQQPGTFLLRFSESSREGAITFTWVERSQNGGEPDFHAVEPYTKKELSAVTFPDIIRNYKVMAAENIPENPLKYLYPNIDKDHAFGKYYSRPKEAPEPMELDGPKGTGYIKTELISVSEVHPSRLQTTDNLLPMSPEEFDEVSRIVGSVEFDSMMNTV

Target: T1, UDP‐glucose dehydrogenase (UGDH) (human (endogenous in human primary chondrocytes)) (UniProt O60701)
T1 sequence: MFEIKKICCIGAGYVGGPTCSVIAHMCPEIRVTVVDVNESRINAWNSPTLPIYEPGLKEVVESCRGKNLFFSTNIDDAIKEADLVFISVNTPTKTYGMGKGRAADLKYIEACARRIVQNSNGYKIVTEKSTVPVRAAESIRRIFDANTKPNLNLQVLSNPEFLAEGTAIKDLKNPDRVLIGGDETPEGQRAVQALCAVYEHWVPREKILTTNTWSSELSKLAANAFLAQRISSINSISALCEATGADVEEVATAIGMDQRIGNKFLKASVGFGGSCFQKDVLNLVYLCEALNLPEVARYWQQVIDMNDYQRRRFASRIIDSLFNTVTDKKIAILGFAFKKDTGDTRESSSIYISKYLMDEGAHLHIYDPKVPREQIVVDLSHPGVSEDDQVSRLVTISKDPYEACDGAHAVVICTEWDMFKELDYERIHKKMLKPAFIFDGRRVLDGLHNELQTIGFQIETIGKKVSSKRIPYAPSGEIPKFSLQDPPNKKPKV
Experiment: affinity purification with mass spectrometry; UGDH purified by CoIP from chondrocytes, followed by MS analysis

## signal transducer and activator of transcription 1 (STAT1) (from UniProt P42224 1-750)
  binding: binds

These are yes or no findings as the source states them, for the method shown. Binding seen in cells or lysates may run through a third protein. Here binding means that the protein was enriched with, or labelled near, the bait; the list need not be complete. Sequences can lack the tags named with a protein.
